Measurements from publication PMC2390755.
These are yes or no findings as the source states them, for the method shown. For part of these data: In cells and extracts the contact can be indirect. Some entries that bind do so weakly or less than the wild type.

By UniProt entry, the sequences of proteins in these tests, tags left out.
UniProt Q24368: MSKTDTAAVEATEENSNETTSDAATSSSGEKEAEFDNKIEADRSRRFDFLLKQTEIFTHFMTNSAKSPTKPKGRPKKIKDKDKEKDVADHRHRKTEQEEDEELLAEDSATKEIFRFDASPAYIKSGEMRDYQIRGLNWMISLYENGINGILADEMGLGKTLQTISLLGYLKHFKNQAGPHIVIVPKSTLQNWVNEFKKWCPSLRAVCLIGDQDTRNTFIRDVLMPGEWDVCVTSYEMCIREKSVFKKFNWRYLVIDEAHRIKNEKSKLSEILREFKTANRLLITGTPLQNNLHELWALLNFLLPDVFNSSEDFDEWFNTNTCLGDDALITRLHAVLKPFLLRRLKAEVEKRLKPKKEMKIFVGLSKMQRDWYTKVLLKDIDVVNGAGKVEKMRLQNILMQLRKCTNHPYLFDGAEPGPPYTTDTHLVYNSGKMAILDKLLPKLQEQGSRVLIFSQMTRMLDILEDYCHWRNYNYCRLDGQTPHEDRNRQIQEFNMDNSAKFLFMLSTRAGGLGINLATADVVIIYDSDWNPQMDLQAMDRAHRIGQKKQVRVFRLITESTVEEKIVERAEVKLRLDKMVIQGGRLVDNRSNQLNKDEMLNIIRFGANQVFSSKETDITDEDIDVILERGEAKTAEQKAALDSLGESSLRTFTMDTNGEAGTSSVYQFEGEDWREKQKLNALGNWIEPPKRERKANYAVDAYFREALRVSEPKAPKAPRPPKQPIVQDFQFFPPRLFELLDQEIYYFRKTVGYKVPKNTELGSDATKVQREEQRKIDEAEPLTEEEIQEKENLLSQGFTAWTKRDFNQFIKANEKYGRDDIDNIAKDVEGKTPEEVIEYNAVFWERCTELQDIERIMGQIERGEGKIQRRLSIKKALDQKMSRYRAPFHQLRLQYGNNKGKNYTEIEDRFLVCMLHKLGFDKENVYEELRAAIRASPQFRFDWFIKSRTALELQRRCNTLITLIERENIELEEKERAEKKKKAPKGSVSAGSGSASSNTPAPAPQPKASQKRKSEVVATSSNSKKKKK
UniProt Q94517: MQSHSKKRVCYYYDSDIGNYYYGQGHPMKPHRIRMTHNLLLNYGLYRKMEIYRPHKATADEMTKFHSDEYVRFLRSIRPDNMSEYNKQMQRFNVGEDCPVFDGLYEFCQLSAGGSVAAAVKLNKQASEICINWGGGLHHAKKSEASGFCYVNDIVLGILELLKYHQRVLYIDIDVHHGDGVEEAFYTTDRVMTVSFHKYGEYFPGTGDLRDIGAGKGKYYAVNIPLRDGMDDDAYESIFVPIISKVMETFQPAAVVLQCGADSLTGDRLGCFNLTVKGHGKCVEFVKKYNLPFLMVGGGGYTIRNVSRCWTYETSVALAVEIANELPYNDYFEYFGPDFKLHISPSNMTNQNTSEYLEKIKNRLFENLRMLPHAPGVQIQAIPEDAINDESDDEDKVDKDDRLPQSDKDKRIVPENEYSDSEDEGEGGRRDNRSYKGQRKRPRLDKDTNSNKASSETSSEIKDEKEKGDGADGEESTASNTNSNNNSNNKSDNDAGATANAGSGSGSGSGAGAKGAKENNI

Experiments:
[1] = molecular target: HA-6His-tagged ISWI (D. melanogaster) (UniProt Q24368); assay: co-IP; anti-HA (rat 3F10) immunoprecipitation from 0-16 h embryo protein extracts of the HA-6His-tagged ISWI line; control extracts without the transgene; Western blot for ISWI, Sin3A, Rpd3
[2] = molecular target: HA-6His-tagged ISWI (D. melanogaster) (UniProt Q24368); assay: co-IP; anti-HA immunoprecipitation from salivary gland total protein extracts of the HA-tagged ISWI line and control extracts; Western blot for ISWI, Sin3A, Rpd3
[3] = molecular target: HA-6His-tagged ISWI (D. melanogaster) (UniProt Q24368); assay: co-IP; anti-HA immunoprecipitation on Superose-6 gel filtration fractions (#25, #33) of HisTrap-enriched larval nuclear extract; Western blot
[4] = molecular target: HA-6His-tagged ISWI (D. melanogaster) (UniProt Q24368); assay: SEC; ISWI-enriched HisTrap fractions of larval nuclear extract on Superose-6 (15 mM Hepes-KOH pH 8, 250 mM KCl, 10% glycerol); fractions blotted for ISWI, Sin3A, Rpd3; elution at about 600 kDa
[5] = molecular target: TAP-tagged ISWI (D. melanogaster) (UniProt Q24368); assay: pull-down; tandem affinity purification of TAP-tagged ISWI from larval nuclear extracts (IPP150 buffer): IgG agarose, TEV cleavage, calmodulin resin, SDS elution; Western blot for ISWI, Sin3A, Rpd3; untagged extracts as control
[6] = molecular target: ISWI (D. melanogaster (endogenous in embryos)) (UniProt Q24368); assay: co-IP; anti-ISWI antibody (4 ug) or generic IgG as control, 500 ug wild-type embryo protein extract, Catch and Release Kit; Western blot for ISWI, Sin3A, Rpd3

binding [1]: binds | binding [2]: binds | binding [3]: binds | binding [4]: binds | binding [5]: binds | binding [6]: binds
Substance: Rpd3 (from UniProt Q94517 1-521) (enzyme)
